Measured values: PubChem BioAssay AID2073 (Sanford-Burnham Center for Chemical Genomics, 2009)
Out of some 290,000 compounds screened, about 570 (0.2%) were called active. Inconclusive results, whose numbers are uncertain, are shown with a selection of clear calls. Rule as the data show it: active = inhibition mostly above about 51% (no sharp cut-off); inconclusive = no clear call, values can overlap the other calls; inactive = mostly below about 53%.

By UniProt entry, the sequences of proteins in these tests, tags left out.
UniProt Q00975, whole entry, looked up: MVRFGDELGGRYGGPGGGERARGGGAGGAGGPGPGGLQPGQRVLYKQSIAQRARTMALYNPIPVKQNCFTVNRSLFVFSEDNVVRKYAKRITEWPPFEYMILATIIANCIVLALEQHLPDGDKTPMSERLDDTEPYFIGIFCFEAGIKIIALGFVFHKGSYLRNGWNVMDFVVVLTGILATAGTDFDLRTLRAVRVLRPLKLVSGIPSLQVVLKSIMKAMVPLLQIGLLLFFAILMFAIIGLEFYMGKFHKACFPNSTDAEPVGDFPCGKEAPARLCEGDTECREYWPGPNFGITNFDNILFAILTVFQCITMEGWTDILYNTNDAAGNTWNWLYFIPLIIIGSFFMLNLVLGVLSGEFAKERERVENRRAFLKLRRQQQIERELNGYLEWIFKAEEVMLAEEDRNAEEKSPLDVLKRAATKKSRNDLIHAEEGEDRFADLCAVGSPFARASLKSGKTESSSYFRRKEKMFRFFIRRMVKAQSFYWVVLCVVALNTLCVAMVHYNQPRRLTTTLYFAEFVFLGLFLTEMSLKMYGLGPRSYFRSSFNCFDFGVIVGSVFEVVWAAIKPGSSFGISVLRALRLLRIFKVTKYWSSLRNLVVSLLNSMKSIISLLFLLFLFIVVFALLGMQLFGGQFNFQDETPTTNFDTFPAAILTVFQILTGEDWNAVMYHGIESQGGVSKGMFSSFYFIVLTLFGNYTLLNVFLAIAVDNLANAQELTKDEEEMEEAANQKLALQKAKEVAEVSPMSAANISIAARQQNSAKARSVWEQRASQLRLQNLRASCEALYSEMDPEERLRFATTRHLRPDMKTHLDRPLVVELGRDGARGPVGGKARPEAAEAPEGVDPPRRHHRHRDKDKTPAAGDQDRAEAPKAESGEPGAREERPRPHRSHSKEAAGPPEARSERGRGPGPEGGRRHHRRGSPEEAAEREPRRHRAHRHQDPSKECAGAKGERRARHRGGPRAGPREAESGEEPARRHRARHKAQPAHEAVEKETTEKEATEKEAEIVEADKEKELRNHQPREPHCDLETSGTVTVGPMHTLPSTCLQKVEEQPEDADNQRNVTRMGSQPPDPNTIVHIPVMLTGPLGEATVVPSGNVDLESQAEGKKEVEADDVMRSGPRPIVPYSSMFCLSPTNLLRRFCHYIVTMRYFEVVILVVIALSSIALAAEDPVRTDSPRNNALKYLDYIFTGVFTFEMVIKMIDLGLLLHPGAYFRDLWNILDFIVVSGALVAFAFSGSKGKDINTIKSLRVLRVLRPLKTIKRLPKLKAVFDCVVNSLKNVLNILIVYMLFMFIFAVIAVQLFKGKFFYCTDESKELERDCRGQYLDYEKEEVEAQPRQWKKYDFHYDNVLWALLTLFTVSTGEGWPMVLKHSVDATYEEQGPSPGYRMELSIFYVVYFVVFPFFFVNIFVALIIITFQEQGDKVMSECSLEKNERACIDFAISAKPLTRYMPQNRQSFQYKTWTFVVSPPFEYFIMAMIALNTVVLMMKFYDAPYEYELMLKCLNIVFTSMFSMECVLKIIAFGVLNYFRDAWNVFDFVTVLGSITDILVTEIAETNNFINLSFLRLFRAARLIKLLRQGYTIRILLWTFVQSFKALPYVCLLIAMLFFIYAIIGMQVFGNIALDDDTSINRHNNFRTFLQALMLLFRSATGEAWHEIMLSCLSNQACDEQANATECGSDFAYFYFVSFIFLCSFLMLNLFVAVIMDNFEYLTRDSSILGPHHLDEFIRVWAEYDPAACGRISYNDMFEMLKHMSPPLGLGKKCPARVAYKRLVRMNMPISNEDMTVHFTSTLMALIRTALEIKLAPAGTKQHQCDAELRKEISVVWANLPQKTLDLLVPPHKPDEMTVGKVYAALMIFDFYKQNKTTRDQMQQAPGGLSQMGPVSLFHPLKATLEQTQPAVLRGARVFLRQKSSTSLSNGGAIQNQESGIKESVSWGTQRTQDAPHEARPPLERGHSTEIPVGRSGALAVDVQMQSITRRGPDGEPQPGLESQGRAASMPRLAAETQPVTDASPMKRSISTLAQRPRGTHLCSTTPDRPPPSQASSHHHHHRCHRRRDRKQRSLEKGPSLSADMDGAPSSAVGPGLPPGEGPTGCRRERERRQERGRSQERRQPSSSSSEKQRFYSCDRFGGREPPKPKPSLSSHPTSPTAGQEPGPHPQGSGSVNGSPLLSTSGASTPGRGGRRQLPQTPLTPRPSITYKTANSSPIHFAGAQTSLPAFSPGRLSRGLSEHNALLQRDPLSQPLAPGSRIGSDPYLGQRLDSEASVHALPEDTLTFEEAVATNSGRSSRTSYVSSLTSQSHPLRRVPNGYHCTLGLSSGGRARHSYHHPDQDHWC

What follows are molecules tested against Voltage-dependent N-type calcium channel subunit alpha-1B (Homo sapiens) (UniProt Q00975) (assay: disruptors of CaV2.2 binding to Mint1 – biochemical, HTRF (AID 2073)). Settings: HTRF protein-protein interaction, Mint1-CaV2.2; at 20 µM; active compounds read high.

SMILES	inhibition
Cc1cccc(C)c1Nc1nc2ccccc2o1	inconclusive: 53.6%
O=C(O)C1CSCN1S(=O)(=O)c1cccc2nsnc12 (stereo unspecified)	inconclusive: 50.5%
CCCN(CCC)C(=O)Cn1c(=O)n(CCC(=O)NCCc2ccccc2)c(=O)c2ccccc21	inconclusive: 65.5%
C=COc1ccc(N2C(=O)c3ccccc3OC2C)cc1 (stereo unspecified)	inconclusive: 61.4%
COc1cc(CNCCN2CCOCC2)ccc1OCC(=O)NC(C)(C)C	inconclusive: 66.2%
O=c1oc2ccccc2c2oc3cc(O)c(O)cc3c12	inactive: 20%
Cc1ccc(S(=O)(=O)N2CCN(c3ccccc3)CC2)cc1	inconclusive: 51.7%
O=C1C=C(O)c2cccc3cccc1c23	inconclusive: 57.1%
COc1ccc(Nc2nc(NC(C)(C)C)nc(N3CCOCC3)n2)c(OC)c1	inconclusive: 64.2%
CCOC(=O)/C=c1\s/c(=C\c2c(OCC)ccc3ccccc23)c(=O)n1CC(=O)NCC1CCCO1 (stereo unspecified)	inactive: 10.3%
CC(=O)c1c(C)nc(-c2ccc(OCC(=O)Nc3cccc(C)c3C)cc2)n1O	inconclusive: 66.1%
CC(C)CCNC(=O)CCc1nnc2ccc(N3CCC(C)CC3)nn12	inconclusive: 50.8%
COc1ccccc1/C=C/C(=O)c1ccc(NC(C)=O)cc1	inconclusive: 50.3%
Cn1c2ccccc2c(=O)c2ccc(C#Cc3ccc(N)cc3)cc21	inconclusive: 53.1%
COc1ccc2[nH]c3nc(SCC(=O)NC4CC4)nnc3c2c1	inconclusive: 73.8%
Cc1nc2c(ncn2-c2ccccc2)c(=O)n1NC(=O)CN1CCCC1	inconclusive: 52.7%
COc1ccc(-c2cc3nc(-c4ccccc4)cc(N4CCCC(O)C4)n3n2)cc1 (stereo unspecified)	inconclusive: 52.9%
COc1cc(CNc2ccc3[nH]c(=O)[nH]c3c2)cc(Br)c1OCC(=O)NC(C)(C)C	inactive: -33%
COc1ccc(/C=C(\C#N)C(=O)NCC2CCCO2)cc1OC (stereo unspecified)	inconclusive: 56.5%
CC1CCN(CC(=O)Nc2cccc(Cl)c2)CC1	inactive: -2.2%
Cn1c2ccccc2c2cc(C(=O)OCC(=O)N3CC(=O)Nc4ccccc43)sc21	inconclusive: 51.3%
COc1ccc(C(=O)/C=C/C(=O)N(CC(=O)NC2CCCCC2)Cc2ccccc2OC)c(O)c1	inactive: 11.5%
Cc1cccc(C)c1N1C(=O)CC(N(O)c2ccccc2)C1=O (stereo unspecified)	inactive: 4.8%

Some values from the entries so far.
For inhibition, `CC(C)CCNC(=O)CCc1nnc2ccc(N3CCC(C)CC3)nn12` reads inconclusive: 50.8%
For inhibition, `COc1ccccc1/C=C/C(=O)c1ccc(NC(C)=O)cc1` reads inconclusive: 50.3%
For inhibition, `C=COc1ccc(N2C(=O)c3ccccc3OC2C)cc1` (stereo unspecified) reads inconclusive: 61.4%
For inhibition, `CC(=O)c1c(C)nc(-c2ccc(OCC(=O)Nc3cccc(C)c3C)cc2)n1O` reads inconclusive: 66.1%
For inhibition, `Cc1ccc(S(=O)(=O)N2CCN(c3ccccc3)CC2)cc1` reads inconclusive: 51.7%

Next part:

SMILES	inhibition
CCn1cc(-c2ccnc3cc(C(=O)O)nn23)c(C)n1	inactive: 39.6%
COCCNC(=O)C(c1ccc(OC)cc1)N(CCOC)C(=O)CCC(=O)Nc1nccs1 (stereo unspecified)	inactive: -3.6%
COc1ccc(-c2cn3cccnc3n2)cc1	inconclusive: 62.5%
CCc1cccc(CC)c1NC(=O)c1cccc(N)c1	inactive: 2.5%
O=C(NCc1ccccc1)c1ccc2nc(-c3ccco3)c(-c3ccco3)nc2c1	inactive: 55.4%
CN(Cc1nc(-c2ccc3c(c2)OCO3)no1)CC1(N2CCOCC2)CCCCC1	inconclusive: 79.2%
O=c1[nH]ncc(NCCc2ccccc2)c1Cl	inconclusive: 94.6%
C=CCCC(=O)N1CCC(CCC(=O)NC2CC2)CC1	inconclusive: 57.9%
Cc1ccc(OCC(=O)Nc2ccc(O)c(-c3nc4ccccc4o3)c2)cc1	inconclusive: 71.8%
O=C(NCCCN1CCOCC1)c1sc2cc(F)ccc2c1Cl	inactive: -0.7%
COc1ccc(S(=O)(=O)N(C)c2ccc(C(=O)NCc3ccncc3)cc2)cc1	inconclusive: 69.9%
COc1ccc(N2C(=NC(=O)C3CC3)SC3CS(=O)(=O)CC32)cc1Cl (stereo unspecified)	inconclusive: 64.3%
Cc1c(Cl)cccc1NC(=O)CCCn1cnc([N+](=O)[O-])n1	inconclusive: 50.9%
Cc1ccc(S(=O)(=O)/N=C(/Nc2ccc(F)cc2F)c2ccc(F)cc2)cc1	inconclusive: 60.5%
Cc1ccc2c(Cl)cc(Cl)c(OCC(=O)NC(=O)NCc3ccco3)c2n1	inactive: 17.4%
COc1cc(/C=N/OCC(=O)Nc2cc(C)on2)ccc1OCc1ccccc1	inconclusive: 95.8%
CCOc1ccc(C(=O)Nc2ccc(NC(=S)NC(=O)CC)cc2)cc1Cl	inconclusive: 92.1%
COc1ccc(C(=O)Nc2cc(C)on2)cc1	inconclusive: 55.3%
Cc1nc2c(C(=O)NCc3ccc4c(c3)OCO4)cnn2c(C)c1Cc1ccc(F)cc1Cl	inconclusive: 78.2%
O=C(NCCN1CCOCC1)c1cc2c(=O)n3ccccc3nc2n1Cc1ccccc1	inconclusive: 58.4%
Cc1ccc2c(c1C)NC(C(=O)O)C1CC=CC21 (stereo unspecified)	inactive: 42.8%
CC1CCc2nc(NC(=O)C3CCCO3)sc2C1 (stereo unspecified)	inconclusive: 78.6%

SMILES	inhibition
C(=C\c1nc2ccccc2[nH]1)/c1ccccc1	inactive: 5.8%
COc1cc(C(CCN2CCCCC2)c2c(OC)cc(OC)c3c(C)cc(=O)oc23)cc(OC)c1OC (stereo unspecified)	inconclusive: 89.1%
COCCN1C(=O)/C(=C/c2ccc(N3CCCC3)cc2)SC1=S	inconclusive: 80.3%
Cc1ccc(CCN2CC(C(=O)NCCN3CCOCC3)CC2=O)cc1 (stereo unspecified)	inconclusive: 53.8%
c1csc(-c2nnc(N3CCCCCC3)c3ccccc23)c1	inconclusive: 59.7%
CCN1CCN(CCCNC(=O)c2ccc(/C=C3/Oc4ccccc4N(Cc4cccc(C)c4)C3=O)cc2)CC1	inconclusive: 54%
CCn1ncc(C2=NOC(C(=O)N3CCC(C(N)=O)CC3)C2)c1C (stereo unspecified)	inactive: 2.8%
COc1cccc(N2CCN(C(=O)c3cc4ccc(OC)cc4[nH]3)CC2)c1	inconclusive: 50.7%
CCc1nnc(N/N=C/c2c(C)[nH]c3ccccc23)n1N	active: 55.5%
CCOC(=O)CSc1nc(Cc2ccccc2)nc2ccccc12	inconclusive: 84.2%
CC(=O)Nc1ccc(S(=O)(=O)C(C#N)c2nc3ccccc3nc2NCCN2CCOCC2)cc1 (stereo unspecified)	inconclusive: 63.3%
O=C1NC(=Nc2ccc(Cl)cc2)/C(=C/c2ccco2)S1	active: 55.3%
CCS(=O)CCSC(=N)N (stereo unspecified)	inconclusive: 98.6%
Cc1ccc2oc(-c3ccc(NC(=O)c4ccc5c(c4)OCO5)cc3)nc2c1	inactive: 6.7%
CCCC(=O)NNC(=O)Nc1ccccc1	inconclusive: 55.3%
CCOC(=O)c1sc(=NC(=O)c2ccc(S(=O)(=O)N(C)c3ccccc3)cc2)n(C)c1C	inconclusive: 61.4%
CCOC(=O)CNC(=O)c1cc(-c2ccc3c(c2)OCCO3)oc1C	inactive: 10.9%
Cc1ccc2nc(-c3ccccc3)cn2c1	inconclusive: 56.6%
CCc1ccc(OCC(=O)N/N=C(\C)c2ccc(O)cc2O)cc1	inconclusive: 63.1%
CC(=O)c1ccc(/C=C/c2nc3ccccc3n2C)o1	inconclusive: 50.1%
COc1ccccc1NC(=O)c1c(NC(=O)CCC(=O)O)sc2c1CCCCC2	inactive: 25%
Cc1ccc(CNC(=O)C2CCN(S(=O)(=O)c3c(C)noc3/C=C/N(C)C)CC2)cc1	inconclusive: 59.9%
CC(=O)c1cnc2nc(C(F)(F)F)nn2c1C	inconclusive: 95.5%

SMILES	inhibition
O=[N+]([O-])c1cccc(/C=N/NS(=O)(=O)c2ccccc2)c1	inconclusive: 61.9%
CNc1ccc(Br)cc(C(=O)/C=C/c2ccc(Cl)cc2Cl)c1=O	active: 52.7%
COc1ccc(N2C3=C(C(=O)CC(C)(C)C3)C(c3ccccc3OC)C3=C2CC(C)(C)CC3=O)cc1	inconclusive: 66.6%
CC1CC(C)CN(S(=O)(=O)N2CCC(C(=O)NCc3ccco3)CC2)C1 (stereo unspecified)	inconclusive: 78.9%
O=C1c2ccccc2C(Nc2cccc(C(F)(F)F)c2)N1Cc1ccco1 (stereo unspecified)	inconclusive: 60%
O=C(Cc1cc(=O)oc2cc(O)ccc12)NC(Cc1ccc(Cl)cc1)C(=O)O (stereo unspecified)	inconclusive: 53.1%
CCC(C)C(=O)Nc1nc2c(s1)C(=O)CC(C)(C)C2 (stereo unspecified)	inconclusive: 81.4%
O=C(NCCc1ccc2c(c1)OCCO2)c1ccc(F)cc1	inconclusive: 53%
CCNC(=O)NC(=O)COC(=O)C1CSC2(C)CCC(=O)N12 (stereo unspecified)	inactive: 3.1%
O=S(=O)(c1ccc(Cl)cc1)N1CCCCCC1	inactive: 13.9%
Cc1cccc(N(C)c2ccc3cc(S(=O)(=O)N4CCCC4)ccc3n2)c1	inconclusive: 50.7%
COc1cc(-c2nnc(SCC3(c4ccc(Br)cc4)OCCO3)o2)cc(OC)c1OC	inconclusive: 54%
Cc1ccc(OCCNS(=O)(=O)c2cccs2)cc1	inconclusive: 84.7%
N#Cc1c(N)n(Cc2ccccc2)c(=O)c2cc([N+](=O)[O-])ccc12	inactive: 2%
COc1ccc(C2CC(c3ccccc3)=NN2C(=O)CCCC(=O)O)cc1 (stereo unspecified)	inconclusive: 59.3%
Cc1cc(OCC(O)CN2CCCC2)ccc1C(C)C (stereo unspecified)	inactive: -5.6%
COc1ccc2[nH]c(=O)c(CN(Cc3nnnn3Cc3ccco3)C3CCCCC3)cc2c1	inactive: 1.1%
COC(=O)Cc1c(C)nc2nc[nH]n2c1=O	inconclusive: 52.6%
COc1cc(NC(=O)CN2C(=O)CSc3ccc(S(=O)(=O)N4CCCC4)cc32)cc(OC)c1	inconclusive: 63.8%
COc1cc(C2/C(=C(/O)c3ccc(OCC(C)C)cc3)C(=O)C(=O)N2CCN(C)C)ccc1O (stereo unspecified)	inconclusive: 71.5%
Cc1cc(C)nc(OC(C(=O)O)C(OCCC(C)C)(c2ccccc2)c2ccccc2)n1 (stereo unspecified)	inconclusive: 90.2%
COc1ccc(C(=O)COC(=O)CN2C(=O)C3C4C=CC(C5CC45)C3C2=O)cc1 (stereo unspecified)	inconclusive: 54.4%
